## Percent effect of library compounds

Each number is a percent effect as filed.
How 0% and 100% were set is not recorded. Most values in the screen are low, and negative values occur.
This is an unselected part of the compounds tested.

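Assay of Toxoplasma gondii numbers, read through their beta-galactosidase reporter with a colour substrate. Tested at 10 µM. Higher reads as fewer parasites (inferred from which compounds were picked for retests). About 67,000 compounds were tested under these conditions; 0.38% (about 260) showed 50% or more at least once.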

Compound: Cc1cnn(CC2CCCCN2C(=O)c2ccc3nncn3c2)c1 (stereo not given)
percent effect: -10.89

Compound: COc1ccc(OCCc2cc(C3CNCCO3)nn2C)cc1 (stereo not given)
percent effect: 4.296

Compound: Cc1cc(C)nc(CN(C)C(=O)c2cccc(CCC(C)(C)O)c2)c1
percent effect: 2.041

Compound: O=C(CCCc1cn[nH]c1)N1CCOCC(O)C1 (stereo not given)
percent effect: 0.7663

Compound: COc1ccc(C[C@H]2CN(C(=O)CS(C)(=O)=O)CC[C@H]2OC)cc1
percent effect: -17.27

Compound: CCc1ccccc1Nc1noc2c1CN(C(=O)c1ccn(C)n1)CC2
percent effect: -20.72

Compound: CC(C)NC(=O)N1CCN(CC2CC2)c2ncccc2C1.O=C(O)C(F)(F)F
percent effect: -9.208

Compound: Cn1ccnc1CN1CC[C@@H](NS(C)(=O)=O)[C@@H]1Cc1ccccc1.O=C(O)C(F)(F)F
percent effect: -21.93

Compound: COc1ccc(N(CCC(N)=O)C(=O)CSc2ccc(F)c(F)c2)cc1
percent effect: 4.147

Compound: O=C(CN1C=Nc2ccccc2S1(=O)=O)NCC1CC1
percent effect: -10.08

Compound: CC(=O)N1CCN(C)CC(COCc2ccccc2)C1 (stereo not given)
percent effect: 14.54

Compound: Cn1ccc(CN2CCC(CCc3ccc(O)cc3)CC2)cc1=O
percent effect: 2.418

Compound: Cc1nc(CN2CCC(C(=O)O)(n3ccc(C(C)C)n3)CC2)co1
percent effect: -16.91

Compound: Cc1ccc2nc(CN(C)Cc3n[nH]c4c3CCCCC4)[nH]c2c1C
percent effect: -5.993

Compound: Cn1nccc1-c1nnn2c1COCC(CNCC1CC1)C2.O=C(O)C(F)(F)F.O=C(O)C(F)(F)F (stereo not given)
percent effect: 0.8728

Compound: O=C(Nc1ccc2c(c1)OCCO2)c1ccc(=O)[nH]n1
percent effect: 4.122

Compound: Cc1ccc(Cc2cnc(NC(=O)C3CNC(=O)N3)s2)cc1F (stereo not given)
percent effect: -1.406

Compound: CN(Cc1ccc(C2CC(=O)Nc3n[nH]cc32)o1)S(C)(=O)=O (stereo not given)
percent effect: -5.447

Compound: CCOC1COC2(CCN(CC3CCOCC3)CC2)C1.O=C(O)C(F)(F)F (stereo not given)
percent effect: 9.871

Compound: Cc1cc(N2CCCC2Cn2nc(C)cc2C)n2ncnc2n1 (stereo not given)
percent effect: -0.6849

Compound: O=C(O)C(F)(F)F.[H][C@@]12CN(CC3CC3)CC[C@]1([H])CN(c1cnccn1)C2
percent effect: -37.58

Compound: CC(=O)N1CCN(Cc2ccc(Cl)c(F)c2)CC(O)C1 (stereo not given)
percent effect: -23.97

Compound: COc1ccc(F)c(-c2cc(C)nc(N)n2)c1
percent effect: -0.716

Compound: O=C(O)C(c1ccc(O)cc1)N1CCC(N2CCSCC2)CC1 (stereo not given)
percent effect: -10.16

Compound: Cc1c(C(=O)NC2CCCOC2)nnn1-c1ccccc1 (stereo not given)
percent effect: 9.042

Compound: CC(C)Cc1noc(CN(C)C(=O)CCNC(=O)c2ccccc2F)n1
percent effect: -11.12

Compound: Cc1occc1C(=O)N1CCC2(CCCN(c3ncc(F)cn3)C2)C1.O=C(O)C(F)(F)F (stereo not given)
percent effect: -13.18

Compound: Cc1nn(C)c2nc(N(Cc3ccncc3)CC3CCCO3)sc12 (stereo not given)
percent effect: -8.085

Compound: COC(=O)N1CCC(Nc2ccc(Cl)c(C#N)n2)C1 (stereo not given)
percent effect: 4.099

Compound: Cc1nccnc1N1Cc2cnc(CC(C)C)nc2C1
percent effect: -37.62

Compound: CCS(=O)(=O)N1C[C@@H](c2ccccc2)[C@@]2(CCNC2=O)C1
percent effect: -20.91

Compound: [H][C@@]12COC[C@]1(C(=O)NC1CC(F)(F)C1)CN(Cc1ccsc1)C2
percent effect: -19.88

Compound: Cc1ccc(CN2CCNC(C(=O)NC3CC3)C2)cc1C (stereo not given)
percent effect: -17.23

Compound: COc1c(F)cc(CN2CCCC3(CC2)CNC(=O)O3)cc1Cl (stereo not given)
percent effect: 1.902

Compound: CN(C(=O)c1ccco1)C1CCC(NC(=O)OC(C)(C)C)CC1 (stereo not given)
percent effect: 5.01

Compound: CC(C)c1nc(C2CCCN2c2ncc(C(N)=O)cc2Cl)no1 (stereo not given)
percent effect: 4.872

Compound: CSCc1cccc(S(=O)(=O)N2CCCCC2)c1
percent effect: 5.32

Compound: CC(NC(=O)N1CCN(c2cccs2)CC1)c1ccncc1 (stereo not given)
percent effect: 2.051

Compound: CN(Cc1csc(-c2cccs2)n1)Cc1cccnc1N
percent effect: -9.826

Compound: Cc1nc(NC(=O)C(C)S(C)(=O)=O)sc1Cc1ccc(F)cc1 (stereo not given)
percent effect: 9.168

Compound: O=C(O)C(F)(F)F.O=C(O)C(F)(F)F.c1cncc(CN2CCn3c(Cn4cncn4)cnc3C2)c1
percent effect: -31.55

Compound: Cc1ccsc1C(=O)NC1CCN(c2cnn(C)c2)C1=O (stereo not given)
percent effect: 3.536

Compound: Cn1cc(CN2CCn3cc(Cn4cccn4)nc3C2)cn1.O=C(O)C(F)(F)F
percent effect: 96.45

Compound: CCNC(=O)CN(Cc1ccoc1)C1CCCCC1
percent effect: 2.183

Compound: CC(C)(C)NC(=O)c1cnc(C(C)(C)C)s1
percent effect: 15.28

Compound: CC(C)N1CC[C@H](c2nc3ccc(C(F)(F)F)cc3[nH]2)C1
percent effect: -1.004

Compound: N#Cc1cn(CCN2CCc3ccccc3C2)c(=O)[nH]c1=O
percent effect: -7.491

Compound: [H][C@]12CCN(c3ncccn3)C[C@]1(COC)CC[C@@H](N1CCOCC1)C2
percent effect: -5.331

Compound: CSc1ncnc(NCc2cccs2)c1C#N
percent effect: 14.8

Compound: N#Cc1ccc(OC2CCN(CC(=O)NCC(F)(F)F)CC2)cc1
percent effect: -0.5963

Compound: CC(CN1CCC2(CC1)c1nc[nH]c1CCN2S(C)(=O)=O)C(F)(F)F (stereo not given)
percent effect: -3.489

Compound: COCCN1CCC(CNC(=O)C2(S(C)(=O)=O)CCCC2)CC1
percent effect: -6.483

For reference, 4 entries once more:

Compound	percent effect
CC(C)Cc1noc(CN(C)C(=O)CCNC(=O)c2ccccc2F)n1	-11.12
CCNC(=O)CN(Cc1ccoc1)C1CCCCC1	2.183
CCOC1COC2(CCN(CC3CCOCC3)CC2)C1.O=C(O)C(F)(F)F (stereo not given)	9.871
Cc1occc1C(=O)N1CCC2(CCCN(c3ncc(F)cn3)C2)C1.O=C(O)C(F)(F)F (stereo not given)	-13.18

Source: ChEMBL document CHEMBL3988442, “University of Dundee, Small-Polar-MMV Screening Library” (2021).